Test results taken from PubChem BioAssay AID330 (DTP/NCI, 2004).
The list shows only some results of the screen, not a fair sample: it is rich in T/C values a quarter to a half above the control, in often repeated tests (any T/C) and in doses without a T/C. Other doses and runs of a compound stand elsewhere. T/C: endpoint of the treated group in % of that of the vehicle group. Some doses have a count of surviving animals in place of a T/C: the source holds a T/C of zero for them, seemingly a mark for toxic or unscored doses. Some doses without a T/C left all or most animals alive at the check, yet need not have been tolerated: survival well below the control is almost never listed, so the zero probably covers shortened survival too. Counts of survivors are from the toxicity check (mostly the fifth day) where no day follows; animals may have died later. Schedule codes are those of the source, read here as Q, the interval in days (D) or hours (H), X, the number of doses. Some doses were run more than once; the results are listed from low to high. Additions like (4×) count equal records among those shown. Where survival is the endpoint, this PubChem deposit counts one and a half times the control or more as active, and values a quarter to a half above the control carry no call in these data; other NCI protocols may use other cut-offs. Some T/C values carry the count of animals alive at the toxicity check (mostly the fifth day); where none is given, no animal had died by that day.

Test system: P388 leukemia ip, CD2F1 mice, survival T/C
Experiment: NCI In Vivo Anticancer Drug Screen. Data for tumor model P388 Leukemia (intraperitoneal) in CD2F1 (CDF1) mice
Details: T/C endpoint: median survival time, higher T/C = longer survival
[1] = dose: 50.0 mg/kg/injection, schedule: Q01DX005 (ip), vehicle: water
[2] = dose: 50.0 mg/kg/injection, schedule: Q01DX009 (ip), vehicle: saline
[3] = dose: 80.0 mg/kg/injection, schedule: Q01DX005 (ip), vehicle: water
[4] = dose: 100.0 mg/kg/injection, schedule: Q01DX009 (ip), vehicle: saline

For `CC(=O)N(C)c1ccc(Nc2cc(C)[nH]c3ccc4ncnc4c23)cc1`, the T/C (dose: 6.25 mg/kg/injection, schedule: Q01DX009 (ip), vehicle: saline) was 126 % of control, the T/C (dose: 10.0 mg/kg/injection, schedule: Q01DX005 (ip), vehicle: water) was 120, 125, 132, 137 % of control and the T/C (dose: 11.0 mg/kg/injection, schedule: Q01DX005 (ip), vehicle: saline) was 130 % of control. The T/C (dose: 12.5 mg/kg/injection, schedule: Q01DX005 (ip), vehicle: saline, evaluated on day 30) was 136 and 141 % of control, the T/C (dose: 12.5 mg/kg/injection, schedule: Q01DX005 (ip), vehicle: saline, evaluated on day 60) was 131 % of control and the T/C (dose: 12.5 mg/kg/injection, schedule: Q01DX005 (ip), vehicle: water) was 131, 132 (2×), 134, 136, 138, 140, 141, 142, 157 % of control. For the same molecule, the T/C (dose: 12.5 mg/kg/injection, schedule: Q01DX009 (ip), vehicle: saline) was 134 % of control, the T/C (dose: 16.0 mg/kg/injection, schedule: Q01DX005 (ip), vehicle: saline) was 128 and 129 % of control and the T/C (dose: 19.4 mg/kg/injection, schedule: Q04DX002 (ip), vehicle: saline) was 132 and 137 % of control. The T/C (dose: 20.0 mg/kg/injection, schedule: Q01DX005 (ip), vehicle: water) was 126, 128, 135, 143 % of control, the T/C (dose: 24.0 mg/kg/injection, schedule: Q01DX005 (ip), vehicle: saline) was 129 and 130 % of control and the T/C (dose: 25.0 mg/kg/injection, schedule: Q01DX005 (ip), vehicle: saline, evaluated on day 30) was 141 and 144 % of control. For the same molecule, the T/C (dose: 25.0 mg/kg/injection, schedule: Q01DX005 (ip), vehicle: saline, evaluated on day 60) was 140 % of control, the T/C (dose: 25.0 mg/kg/injection, schedule: Q01DX005 (ip), vehicle: water) was 125, 125 [5 of 6 alive], 127, 128 (2×), 130, 132, 138, 155, 185 % of control and the T/C (dose: 25.0 mg/kg/injection, schedule: Q01DX009 (ip), vehicle: saline) was 143 % of control. The T/C (dose: 30.0 mg/kg/injection, schedule: Q01DX005 (ip), vehicle: saline, evaluated on day 30) was 143, 144, 154 % of control, the T/C (dose: 30.0 mg/kg/injection, schedule: Q01DX005 (ip), vehicle: saline, evaluated on day 45) was 138, 141 (3×), 142, 144 (2×), 146 % of control and the T/C (dose: 30.0 mg/kg/injection, schedule: Q01DX005 (ip), vehicle: saline, evaluated on day 60) was 130 and 158 % of control. The T/C (dose: 32.4 mg/kg/injection, schedule: Q04DX002 (ip), vehicle: saline) was 131 and 132 % of control, the T/C (dose: 36.0 mg/kg/injection, schedule: Q01DX005 (ip), vehicle: saline) was 135 and 137 % of control and the T/C (dose: 40.0 mg/kg/injection, schedule: Q01DX005 (ip), vehicle: water) was 140, 143, 150, 154 % of control. The T/C (dose: 44.0 mg/kg/injection, schedule: Q01DX005 (ip), vehicle: saline, evaluated on day 30) was 142, 148, 150 % of control, the T/C (dose: 44.0 mg/kg/injection, schedule: Q01DX005 (ip), vehicle: saline, evaluated on day 45) was 141 (3×), 142, 145, 148, 155, 157 % of control and the T/C (dose: 44.0 mg/kg/injection, schedule: Q01DX005 (ip), vehicle: saline, evaluated on day 60) was 136, 146, 156 % of control. The T/C (dose: 50.0 mg/kg/injection, schedule: Q01DX005 (ip), vehicle: saline, evaluated on day 30) was 135 % of control, the T/C (dose: 50.0 mg/kg/injection, schedule: Q01DX005 (ip), vehicle: saline, evaluated on day 60) was 135 % of control and the T/C [1] was 141, 147 (2×), 151 (2×), 158, 166, 169 % of control. The survivor count [1] was 1 of 6 and 2 of 6, the T/C [2] was 146 % of control and the T/C (dose: 54.0 mg/kg/injection, schedule: Q01DX005 (ip), vehicle: saline) was 134 and 145 % of control [9 of 10 alive]. The T/C (dose: 54.0 mg/kg/injection, schedule: Q04DX002 (ip), vehicle: saline) was 132 and 148 % of control, the T/C (dose: 67.0 mg/kg/injection, schedule: Q01DX005 (ip), vehicle: saline, evaluated on day 30) was 154, 160, 161 % of control and the T/C (dose: 67.0 mg/kg/injection, schedule: Q01DX005 (ip), vehicle: saline, evaluated on day 45) was 144, 155, 156, 157 (2×), 161, 164, 166 % of control. The T/C (dose: 67.0 mg/kg/injection, schedule: Q01DX005 (ip), vehicle: saline, evaluated on day 60) was 147, 157, 167 % of control, the survivor count (dose: 75.0 mg/kg/injection, schedule: Q01DX005 (ip), vehicle: saline) was 5 of 5 and the survivor count (dose: 80.0 mg/kg/injection, schedule: Q01DX005 (ip), vehicle: saline) was 5 of 10 and 8 of 10. For the same molecule, the T/C [3] was 146, 173, 188 % of control [5 of 6 alive], the survivor count [3] was 4 of 5 and the T/C (dose: 90.0 mg/kg/injection, schedule: Q04DX002 (ip), vehicle: saline) was 138 % of control. For the same molecule, the T/C (dose: 100.0 mg/kg/injection, schedule: Q01DX005 (ip), vehicle: saline, evaluated on day 30) was 101, 147 [8 of 10 alive], 171 % of control, the T/C (dose: 100.0 mg/kg/injection, schedule: Q01DX005 (ip), vehicle: saline, evaluated on day 45) was 155, 161, 163, 168, 170, 185 % of control and the T/C (dose: 100.0 mg/kg/injection, schedule: Q01DX005 (ip), vehicle: saline, evaluated on day 60) was 118 [7 of 10 alive], 186, 187, 190 % of control. The survivor count (dose: 100.0 mg/kg/injection, schedule: Q01DX005 (ip), vehicle: saline) was 8 of 10, 10 of 10, 6 of 6, the survivor count (dose: 100.0 mg/kg/injection, schedule: Q01DX005 (ip), vehicle: water) was 0 of 6, 1 of 6, 2 of 6, 3 of 6, 4 of 6, 6 of 6 and the survivor count (dose: 100.0 mg/kg/injection, schedule: Q01DX005 (iv), vehicle: saline) was 9 of 10. For the same molecule, the survivor count [4] was 10 of 10, the survivor count (dose: 120.0 mg/kg/injection, schedule: Q01DX005 (ip), vehicle: saline) was 0 of 10 and 1 of 10 and the survivor count (dose: 150.0 mg/kg/injection, schedule: Q01DX005 (ip), vehicle: saline) was 0 of 5, 3 of 10, 4 of 10 (2×), 7 of 10 (2×). The survivor count (dose: 150.0 mg/kg/injection, schedule: Q01DX005 (oral), vehicle: saline) was 3 of 5, the survivor count (dose: 150.0 mg/kg/injection, schedule: Q04DX002 (ip), vehicle: saline) was 0 of 5, 4 of 8, 5 of 8 and the survivor count (dose: 200.0 mg/kg/injection, schedule: Q01DX001 (ip), vehicle: saline) was 2 of 10. For the same molecule, the survivor count (dose: 200.0 mg/kg/injection, schedule: Q01DX001 (iv), vehicle: saline) was 0 of 10, the survivor count (dose: 200.0 mg/kg/injection, schedule: Q01DX005 (ip), vehicle: saline) was 0 of 10 and the survivor count (dose: 300.0 mg/kg/injection, schedule: Q01DX001 (ip), vehicle: saline) was 0 of 5. The survivor count (dose: 300.0 mg/kg/injection, schedule: Q01DX005 (ip), vehicle: saline) was 0 of 5, the survivor count (dose: 300.0 mg/kg/injection, schedule: Q04DX002 (ip), vehicle: saline) was 0 of 5 and the survivor count (dose: 400.0 mg/kg/injection, schedule: Q01DX001 (ip), vehicle: saline) was 0 of 10. For the same molecule, the survivor count (dose: 600.0 mg/kg/injection, schedule: Q01DX001 (ip), vehicle: saline) was 0 of 5, the survivor count (dose: 600.0 mg/kg/injection, schedule: Q04DX002 (ip), vehicle: saline) was 0 of 5 and the survivor count (dose: 1200.0 mg/kg/injection, schedule: Q01DX001 (ip), vehicle: saline) was 0 of 5.
For `CCCCCCCCC[N+]1(CC)CCCCC1`, the survivor count [2] was 0 of 6, the survivor count [4] was 0 of 6 and the survivor count (dose: 200.0 mg/kg/injection, schedule: Q01DX009 (ip), vehicle: saline) was 0 of 6.
`O=C1c2ccccc2C(=O)c2sccc21` was tested, and the survivor count (dose: 12.5 mg/kg/injection, schedule: Q01DX009 (ip), vehicle: saline with Tween-80) was 6 of 6 and the survivor count (dose: 50.0 mg/kg/injection, schedule: Q01DX009 (ip), vehicle: saline with Tween-80) was 6 of 6.
With `CC(=O)c1c(O)cc2c3c1OC(C)(C)C1CCC(C)(CC31)O2` (configuration not stated) the survivor count [2] was 5 of 6.
`CCOC(C)(c1ccc(Cl)cc1)C1CCNCC1` (configuration not stated) was tested, and the survivor count (dose: 200.0 mg/kg/injection, schedule: Q01DX009 (ip), vehicle: saline with Tween-80) was 0 of 6.
